In all, about 53,000 sequences went through this assay and about 3,700 (7%) were called active.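 Rule for the calls: active = gene knockdowns whose robust z-score for IL-1 alpha signal is at least 2 or at most -2, so actives lie on both sides; inactive = the rest.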 The list shows a part of the results.
Assay: Components of the Cytosolic LPS Sensing Pathway: Gene Identification via Genome-wide siRNA Screen;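 note: robust z of the log signal after scaling to non-targeting control siRNA wells of the plate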
Conditions: RAW264.7 macrophages, IL-1a HTRF, actives lie on both sides, screened at 100 nM (by protocol), cells primed 5 h with Pam3CSK4 first
How it was run: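 Mouse macrophage line RAW264.7 is transfected with siRNA (100 nM final), grown 48h, primed with TLR ligand Pam3CSK4 5 h and given intracellular LipidA 24 h. IL-1a in supernatant is read by HTRF and viability by luminescence.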

| Sequence | z-score |
| --- | --- |
| GGUUUCUGGCUUUCCGUAGTT against Erf | inactive: -0.0549 |
| GGUCCUUACCAUCAAUCCUTT against Pgls | inactive: 0.0794 |
| GGAAAUGGACAUUGUAUUCTT against Serpina3k | inactive: -1.11 |
| CGUGGAAGUAAACUCCCUUTT against Zfp112 | inactive: 0.342 |
| GCAAAUGUUCGGUAAUUUGTT against Parp9 | inactive: -0.212 |
| GCACAAGGAUUCUCGCUGUTT against Ext1 | inactive: 1.69 |
| GGUGUUUGACCCUUCUUGCTT against Pqbp1 | inactive: 1.64 |
| CCUGUUUAUAAGUCAGAGATT against Zzz3 | inactive: 1.5 |
| CGGAAAGACGAUGCUCAAUTT against Lztr1 | inactive: -0.993 |
| GGAGCAUUCACAUACUUACTT against Olfr944 | inactive: 0.165 |
| CCAGGUUGAUGAUUUCAACTT against Tbcc | inactive: -1.43 |
| GGAAGCUGGUUCCUGUUUUTT against Hrk | inactive: -0.194 |
| GAUUCUUGAGGAAUUUAGCTT against Syncrip | inactive: 1.21 |
| GCCACGAUUGUUGUCAUGCTT against Rab25 | inactive: 0.213 |
| GGAGAAGAGAAUAGAAGAATT against Ren1 | inactive: -0.0528 |
| GGAAAUGAUGUGUUUCAGUTT against Fmo5 | inactive: 0.552 |
| GGUAACCAUGAUGAUGACATT against Tmem38b | active: -2.05 |
| UCAUCUUACUCACAGUCUCTT against Tas2r118 | inactive: -1.62 |
| GGAGCAAAGUGAUAAUUAUTT against Pcdhga8 | inactive: 0.639 |
| GUUUUUAGGUUGAGAAACUTT against Vmn1r219 | inactive: 0.00542 |
| GGACAACCAAGGAAGAAACTT against Fam205c | inactive: 0.816 |
| CCCAUCAUCUUCCCAUUCGTT against Olfr146 | inactive: -0.204 |

| Sequence | z-score |
| --- | --- |
| GGGACUGGACCCAUACAAUTT against Cox5b | active: 4.27 |
| GGACAGAAAAACCUUCUAATT against Hexb | inactive: -0.567 |
| GGCCACUGGGUUUUUCCUGTT against Golt1b | inactive: 0.751 |
| GGAGAUGAUUUUGAACUUCTT against Retreg3 | active: 2.73 |
| GGAUUGACAGUGUCAGUCUTT against Gnal | inactive: -0.408 |
| GGAAGUGAUGUACUUCCAATT against Qpctl | inactive: 0.327 |
| GGUAUACCAAGAAGCUAAGTT against Kctd14 | inactive: -0.855 |
| GGAAAAUGGUUGGUACUUUTT against Vwc2 | inactive: 0.219 |
| GGUUUUCCUGUUAUUUUCUTT against Mapre2 | inactive: 0.462 |
| GCCCUUCGAAUGUGUAAGGTT against Vwa5b2 | inactive: -0.446 |
| GGUUUUACCCUGUAAUACUTT against 1700012B09Rik | inactive: 0.242 |
| GGUACUGAUCAUGGAAUAUTT against Hibch | inactive: -1.97 |
| GGAGAUACAAUGUGAAAAGTT against Odf2 | inactive: 0.418 |
| GGGUUGCUAAUGGAGAUGGTT against Slc12a1 | inactive: -1.03 |
| GGCUCCACCGACUUUGUCUTT against Pprc1 | inactive: -0.792 |
| GGAUGAACUUUCCUAAGUUTT against Lrrc8b | inactive: -0.0863 |
| CCCUAUUGUCAAUAUUCUATT against Nr1h5 | inactive: 0.492 |
| GCACUUCGGAUGGUUCGAGTT against Elovl1 | inactive: -0.404 |
| GCAUGUUUACCUCAAAGUGTT against Cd209e | inactive: 0.843 |
| CGCAUUGGUAGCUUGGAUATT against Nmbr | inactive: -0.192 |
| GCAAGUGCGGAAGAAAGGATT against Afap1l2 | inactive: 0.0285 |
| GGAAAGAGUGUGCAAACUCTT against Ly6d | inactive: 0.0731 |

Part of the list above, tab-delimited:
Sequence	z-score
GGUAUACCAAGAAGCUAAGTT against Kctd14	inactive: -0.855
CCCUAUUGUCAAUAUUCUATT against Nr1h5	inactive: 0.492

Reformatted with tabs: entries from further up.
Sequence	z-score
CCCUAUUGUCAAUAUUCUATT against Nr1h5	inactive: 0.492
GCACUUCGGAUGGUUCGAGTT against Elovl1	inactive: -0.404

Going on with the list:

| Sequence | z-score |
| --- | --- |
| GCUAAGGAUUAGAAGGAAATT against Psme2 | inactive: -0.997 |
| GGACUUUGACAGCUUAGGATT against Acot10 | inactive: -0.446 |
| GGCCAGUCAAUUCUUGCUUTT against Itpripl2 | inactive: 0.355 |
| GGUGAAGACGUGGUAUCAATT against Barx1 | inactive: -1.06 |
| GGCUCAUGGUUAUUGUAAUTT against Olfr1198 | inactive: -0.385 |
| GGGAAGAUUGAUUUUAUCGTT against Abcb11 | active: 2.31 |
| GGCUUGAAUAUUAAAGUGATT against Arhgef19 | inactive: -0.505 |
| GGAAAUGAUACAUUUGUGATT against Mre11a | inactive: -0.256 |
| GGUAAUAAACAGACAUAGATT against 2410141K09Rik | inactive: 1.2 |
| GGUGAAAUAUGAGGAGUUUTT against Calm4 | inactive: -0.079 |
| CCUCGAUAUGAGUUUUUGATT against Mrfap1 | inactive: -0.288 |
| GCUAUAUCGCUAUGGACACTT against Cnot8 | inactive: 0.954 |
| GCAUCUUUGUGAAUGUUUATT against Slc7a3 | inactive: -0.462 |
| GGAUCUGCUGAAUAAGUGCTT against Fam216a | inactive: -1.43 |
| GGCCAGGAGAUUCCUAUGATT against Shisa4 | inactive: -0.304 |
| GGCAGCAAGUUUUUUAAUCTT against Cap1 | inactive: 0.464 |
| GCCACUCUAUGUGAACACATT against Hmgxb4 | inactive: -0.648 |
| GGUUCAAUAAAAAUGCUUCTT against Ngp | inactive: 1.37 |
| GGAAAAUUGGCCAAAAUAATT against Pdcl | inactive: -0.0308 |
| GGACGUGCUACAUUUGAAATT against Zfp870 | inactive: -0.961 |
| CCCUUUAUGAUAGGUUUUATT against Vmn1r85 | inactive: 1.79 |
| GCAAGAUUCAGAGUGCAGCTT against Txlng | inactive: -1.09 |

| Sequence | z-score |
| --- | --- |
| GCAACGGAGCGGAAAAGAATT against Kif26b | inactive: -1.2 |
| CGCAAGAUCCUCAAACGAGTT against Proc | inactive: -0.358 |
| GGCUCUCUGAGGAAUCUAGTT against Slc66a2 | inactive: -0.413 |
| CGGACCAUUAUGAGUCAUUTT against Mtln | inactive: 0.734 |
| GGUCAUGGAUUGCUUUUUATT against Dus1l | inactive: -0.251 |
| GGGCAUCUUCUACCUGACCTT against Zdhhc9 | inactive: -0.59 |
| GGGCCUGUAAUGGUGUACATT against B230317F23Rik | active: 2.56 |
| GGUUUCUUUUAAGCAUCAUTT against Olfr862 | inactive: -0.611 |
| GGGUGAAUCAUUCUGUGACTT against Olfr1313 | inactive: 0.531 |
| GGCAAAGAACAUCAAGCAATT against Sgsm3 | inactive: -0.495 |
| GGACAUGCUUUUAUAGAUGTT against H2aw | inactive: 0.994 |
| GGCCAAAAUCGGGCAAGAATT against Nat9 | inactive: -0.813 |
| CGAAGAGAGCUGCAUUAAATT against BC049715 | inactive: -1.37 |
| GGUGCUCUUUUCAGAAAAATT against Hacd1 | inactive: 0.65 |
| GUCAAAGAGUUUCAGCAUCTT against Foxl1 | inactive: 0.664 |
| GCAUUCACCGUACGUAUUCTT against Id4 | inactive: 0.187 |
| GGUUCAUCAUUUGGAAACATT against Msh4 | inactive: -1.43 |
| GGGUCCCGGUUUAAAGCUUTT against Ankle2 | inactive: -0.892 |
| CGAGGAUUUCUGUUACUUATT against Lyst | inactive: 1.19 |
| GCCAUUCGUUCUACGAAACTT against Fam3c | inactive: 0.114 |
| GGGAGUUUCAGACCAGUGUTT against Atp5g3 | inactive: -0.097 |
| GGAAAAGGCCGAUUUCGUGTT against Dixdc1 | inactive: 0.556 |

| Sequence | z-score |
| --- | --- |
| GGUGAGAACGAGAUGGUGATT against Txnip | inactive: -0.057 |
| CGUGUUUCACAAGAGCAUATT against Svs2 | inactive: -0.472 |
| GGUGAUUUUAUGACAGGAATT against Cbx6 | inactive: -0.814 |
| GCAAGGAUCCACGCUUUUCTT against Ckmt2 | inactive: 1.34 |
| GGAAAAGCUCAAUGUCCUCTT against Tex13b | inactive: -0.141 |
| GCAAGAGUACAUCAAUGAUTT against Wdr75 | inactive: 1.1 |
| CGGAUUAAACAUAGUAACUTT against Prss58 | inactive: -0.0341 |
| GGCACAAGACAGUUUGGCATT against Lonrf3 | inactive: 0.0474 |
| GGAGGAUUCCAAAGUCCGATT against Sp5 | inactive: 0.4 |
| GCCGUGGCCUAAUAAACGUTT against Nosip | inactive: 0.0316 |
| CCCGAAUCUCAGCGUAGAATT against Gm5617 | inactive: -0.853 |
| GGGCACUGGAACAGAUUUUTT against Ccnh | active: 4.27 |
| GCAUUUUAUGCACUCUGUCTT against Camk4 | inactive: -1.19 |
| GCCAGUCUUAAAUGAUCAATT against Evi2b | inactive: 0.25 |
| GGAUCUUGGAUGAGCUGACTT against Krt31 | inactive: -0.76 |
| GGCCUAAUUAGUUACUUCUTT against Zfp446 | inactive: -0.0114 |
| GGAAUGGAGUCUCCAAAGUTT against Mgl2 | inactive: 0.788 |
| GGGUACUGAGGCACUAAAGTT against Mzt1 | inactive: 1.09 |
| GGUGAUGACAAAGUACAAUTT against Stx3 | inactive: -0.248 |

Copied from the list:
For z-score, CCCGAAUCUCAGCGUAGAATT against Gm5617 is entered as inactive: -0.853
For z-score, GCAAGAGUACAUCAAUGAUTT against Wdr75 is entered as inactive: 1.1
For z-score, GGCACAAGACAGUUUGGCATT against Lonrf3 is entered as inactive: 0.0474

— PubChem BioAssay AID1508600 (Functional Genomics Laboratory (NCATS/FGL), 2020)
